Test results published in article PMC11695829, “DSIF factor Spt5 coordinates transcription, maturation and exoribonucleolysis of RNA polymerase II transcripts” (Nature Communications, 2025).
No constants are given. Whether binding was seen depends on the method and setting. Binding can be weak; no strength is given. For some of these results: Tags and fused reporters may be left off the sequences shown.

Columns and labels:
[1] = molecular target: T1, full-length Rai1 Strep-tagged (S. pombe) (UniProt O13836); assay: pull-down; Rai1 immobilised on beads and challenged with Xrn2 or Xrn2/Spt4/5; no Pol II; both purified
T1 sequence: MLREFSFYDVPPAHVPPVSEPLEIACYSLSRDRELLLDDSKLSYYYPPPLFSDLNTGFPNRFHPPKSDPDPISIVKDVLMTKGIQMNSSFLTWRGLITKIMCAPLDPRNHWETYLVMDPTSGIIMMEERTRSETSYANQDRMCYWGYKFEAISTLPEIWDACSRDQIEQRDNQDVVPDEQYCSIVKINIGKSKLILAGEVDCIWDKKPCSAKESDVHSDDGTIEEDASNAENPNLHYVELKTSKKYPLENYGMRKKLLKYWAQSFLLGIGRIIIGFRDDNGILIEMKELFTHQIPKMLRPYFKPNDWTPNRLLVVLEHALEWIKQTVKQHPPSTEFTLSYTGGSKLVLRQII

[2] = molecular target: T2, Rpc10 (Rpb12) (subunit of the purified S. pombe Pol II) (S. pombe) (UniProt P48011); assay: cryo-EM structure; Pol II-scaffold 1-Spt4/5-Xrn2^M/Rai1 complex assembled on M2 Flag resin, eluted with 3xFlag peptide, cross-linked with 0.1% glutaraldehyde; 2.67 Å map; both purified
T2 sequence: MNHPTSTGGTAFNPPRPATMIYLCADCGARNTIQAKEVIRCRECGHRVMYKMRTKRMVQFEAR

[3] = molecular target: T3, Rpb3 (subunit of the purified S. pombe Pol II) (S. pombe) (UniProt P37382); assay: cross-linking; reconstituted Pol II-DSIF-Xrn2^M-Rai1-DNA-RNA complex cross-linked with BS3 on ice for 1 h; cross-linked peptides by mass spectrometry (pLink); both purified
T3 sequence: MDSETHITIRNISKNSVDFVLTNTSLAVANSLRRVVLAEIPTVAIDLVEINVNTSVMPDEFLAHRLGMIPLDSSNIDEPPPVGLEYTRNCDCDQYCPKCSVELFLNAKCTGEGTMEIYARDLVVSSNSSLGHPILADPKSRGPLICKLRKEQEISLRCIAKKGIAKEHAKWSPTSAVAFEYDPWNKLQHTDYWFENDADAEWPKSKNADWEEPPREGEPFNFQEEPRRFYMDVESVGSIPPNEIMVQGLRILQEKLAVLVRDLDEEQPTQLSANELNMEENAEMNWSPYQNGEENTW

[4] = molecular target: T2, Rpc10 (Rpb12) (subunit of the purified S. pombe Pol II) (S. pombe); assay: as above

| binding [1] | binding [2] | binding [3] | binding [4] | Substance |
| --- | --- | --- | --- | --- |
| binds |  |  |  | C-terminally truncated Xrn2 (residues 1–885), WT (S. pombe) (enzyme) |
|  | binds | binds | binds | Xrn2^M (D237A), residues 1–885 (S. pombe) (enzyme) |
